## Library screening results

Each number is a percent effect as filed. The controls that fix the scale are not given in the record; negative values are as filed. Compounds were drawn at random from those tested, without regard to their results. A dash means the value is not listed here; it may have been measured.

Mtb growth Cornell: 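Whole-cell assay for inhibitors of Mycobacterium tuberculosis growth, labelled Cornell in the record; the read-out is not stated. The concentration is filed as 10 mM, unlikely as a test dose, so the dose is not known. Higher means stronger inhibition (inferred from two other growth screens of the library). Size under these conditions: about 53,000 compounds, about 900 of them at 50% or above in at least one test.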
Mtb heat-shock: 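Assay on Mycobacterium tuberculosis, filed only as a heat shock assay from Cornell; the read-out is not stated. The concentration is filed as 10 mM, unlikely as a test dose, so the dose is not known. Higher reads as stronger inhibition (inferred: compounds with an IC50 in retests scored well above the rest). Size under these conditions: about 69,000 compounds, about 930 of them at 50% or above in at least one test.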

COc1ccccc1OCC(=O)n1ncc(C#N)c1N read Mtb growth Cornell: -54.34%; Mtb heat-shock: -8.777%. With O=C(c1ccc(SC(F)(F)F)cc1)N1CCOCC1c1ncon1 (stereo unspecified) the screen gave Mtb heat-shock: -0.07917%. With O=C(C1CCCOC1)N1CCc2ccc(F)cc21 (stereo unspecified) the screen gave Mtb growth Cornell: 20.51%; Mtb heat-shock: 8.332%. Result for CC(=O)N1CCCC2(C1)CN(C(=O)Cc1ccccc1)CCO2 (stereo unspecified) was Mtb growth Cornell: -16.41%; Mtb heat-shock: -9.359%. c1cc(-c2c[nH]c([C@@H]3COCCN3Cc3csnn3)n2)ccn1 read Mtb growth Cornell: -31.71%; Mtb heat-shock: -13.24%. O=C(O)C(F)(F)F.[H][C@@]12CCN(CC3CCOCC3)C[C@]1([H])O[C@@H](C(=O)N1CCC(C)CC1)C2 gave Mtb growth Cornell: -3.326%; Mtb heat-shock: -6.724%.

Result for O=C(O)C(F)(F)F.O=C(O)C(F)(F)F.[H][C@@]12C[C@@H](Oc3cncnc3)CN1CCN(c1ncccn1)C2 was Mtb growth Cornell: -1.423%; Mtb heat-shock: -4.989%. With Cc1cccc(C2CCCN2S(=O)(=O)N(C)C)n1 (stereo unspecified) the screen gave Mtb heat-shock: -7.65%. Result for CCN(Cc1ccccc1)c1ncnc2c(C)nn(CC)c12 was Mtb growth Cornell: 12.9%; Mtb heat-shock: 25%. Cc1nc2c(c(C)c1CC(=O)Nc1ccnn1C(C)C)c(=O)[nH]n2C read Mtb growth Cornell: -6.05%; Mtb heat-shock: -20.23%. Cc1csc(NC(=O)C2CCN(Cc3cccc4c3OCCO4)CC2)n1 gave Mtb growth Cornell: -19.38%; Mtb heat-shock: 15.76%. Result for CCOC(=O)CC(NC(=O)c1cn(Cc2ccccc2F)nn1)C(C)C (stereo unspecified) was Mtb growth Cornell: 3.699%; Mtb heat-shock: 12.82%.

Result for COc1ccc(Cl)cc1NCCC(=O)NCCNc1cnccn1 was Mtb growth Cornell: 27.7%; Mtb heat-shock: -10.51%. With O=C(O)C(F)(F)F.[H][C@@]12COC[C@]1([H])[C@H](NC(=O)c1cscn1)CN2c1ncc(CC)cn1 the screen gave Mtb growth Cornell: -13.08%; Mtb heat-shock: 3.18%. For Cc1ncc(CN2CCCC(O)(c3ccc(F)cc3)CC2)n1C.O=C(O)CC(O)(CC(=O)O)C(=O)O (stereo unspecified) the result was Mtb growth Cornell: -12.18%; Mtb heat-shock: -18.52%. CNC(=O)C1CCN(C(=O)c2ccn(-c3ccc(F)cc3)n2)CC1 read Mtb growth Cornell: 14.43%; Mtb heat-shock: 9.364%. Result for Cc1ccc2c(c1)C1(CC(=O)Nc3[nH]ncc31)C(=O)N2C (stereo unspecified) was Mtb growth Cornell: 1.875%; Mtb heat-shock: -7.134%. For CC(=O)NCC1CCC2(CCN(c3ncc(C)cn3)CC2)O1 (stereo unspecified) the result was Mtb growth Cornell: 2.857%; Mtb heat-shock: -30.22%.

With O=C(O)c1ccccc1CN1CCOC(CCc2ccncn2)C1 (stereo unspecified) the screen gave Mtb growth Cornell: -60.85%; Mtb heat-shock: -0.1077%. Result for CN(CCNC(=O)NCc1ccsc1)C1CCCC1 was Mtb heat-shock: -3.801%. With OC(CN1CCN(c2ncccn2)CC1)c1cccc(F)c1 (stereo unspecified) the screen gave Mtb growth Cornell: 5.773%; Mtb heat-shock: -3.352%. C=C(C)COc1cccc(C(=O)NCCCc2nnn[nH]2)c1 read Mtb heat-shock: 14.77%. CN(Cc1ccccc1)c1ncccc1CNC1CN2CCC1CC2 (stereo unspecified) read Mtb growth Cornell: 34.83%; Mtb heat-shock: 32.69%. For CC(=O)N1CC(=O)N(c2ccsc2)CC12CCN(Cc1ccoc1)C2 (stereo unspecified) the result was Mtb growth Cornell: 28.89%; Mtb heat-shock: -1.846%.

For Cc1ccc(OCC2CCCN(CC3CCOCC3)C2)cc1 (stereo unspecified) the result was Mtb growth Cornell: 1.481%; Mtb heat-shock: -5.694%. CCCc1cc(C(=O)N(Cc2cccnc2)C2CCCCC2)[nH]n1 read Mtb growth Cornell: 36.64%; Mtb heat-shock: -17.3%. CN(C(=O)c1ccc(Cl)cc1)C1CCN(c2ccccn2)CC1 gave Mtb heat-shock: -7.141%. Result for Cc1ccc(NC(=O)N(C)C)c(C(=O)OCC(=O)NC(C)C(C)C)c1 (stereo unspecified) was Mtb heat-shock: -5.019%. With O=C(NCc1ccccc1Cn1cncn1)C1CCCCC1 the screen gave Mtb growth Cornell: -4.697%; Mtb heat-shock: -1.638%. For CC(C)[C@@H]1CN(CCOc2ccc(Cl)cc2)C[C@H]1NS(C)(=O)=O the result was Mtb growth Cornell: 22.29%; Mtb heat-shock: 0.5484%.

With CCc1cnc(C)nc1N1CCC(Cc2cccc(C(=O)O)c2)C1 (stereo unspecified) the screen gave Mtb growth Cornell: -3.857%; Mtb heat-shock: -25.68%. For CN1CCCC(N(C)S(=O)(=O)c2cccc3ncccc23)C1 (stereo unspecified) the result was Mtb growth Cornell: 2.119%; Mtb heat-shock: -5.039%. For CC(C)Oc1ncccc1CNC(=O)N1CCCC1c1ccsc1 (stereo unspecified) the result was Mtb heat-shock: -10.95%. Cc1cc(NCCSc2nccn2C)n2nc(C)c(C)c2n1 read Mtb growth Cornell: 27.83%; Mtb heat-shock: 72.35%. Result for CC[C@@H]1N(Cc2nccs2)CCC[C@]12CCC(=O)N2CCOC.O=C(O)C(F)(F)F was Mtb heat-shock: -28.64%. CC(C)c1nc(S(=O)(=O)N2CCSc3ccccc32)c[nH]1 read Mtb growth Cornell: 24.52%; Mtb heat-shock: 14.8%.

Result for CN(Cc1ccncn1)C(=O)c1cccc(CCC(C)(C)O)c1 was Mtb growth Cornell: -13.8%; Mtb heat-shock: -3.098%. O=C(C1CCOCC1)N1CCC2(CC1)CC(Oc1ccccc1)CO2 (stereo unspecified) gave Mtb growth Cornell: 10.65%; Mtb heat-shock: -6.565%. With Cc1noc(C)c1CC(=O)N1CCCN(Cc2cscn2)CC1 the screen gave Mtb heat-shock: 12.5%. Result for O=C(c1ccon1)N1CCc2ncnc(NCc3cccnc3)c2CC1 was Mtb growth Cornell: 1.161%; Mtb heat-shock: 1.572%.

3 of the entries, repeated:

compound	Mtb growth Cornell	Mtb heat-shock
O=C(O)C(F)(F)F.[H][C@@]12COC[C@]1([H])[C@H](NC(=O)c1cscn1)CN2c1ncc(CC)cn1	-13.08%	3.18%
CC(C)[C@@H]1CN(CCOc2ccc(Cl)cc2)C[C@H]1NS(C)(=O)=O	22.29%	0.5484%
CC[C@@H]1N(Cc2nccs2)CCC[C@]12CCC(=O)N2CCOC.O=C(O)C(F)(F)F	-	-28.64%

Data taken from ChEMBL document CHEMBL3988442, “University of Dundee, Small-Polar-MMV Screening Library” (2021).